# Source: PubChem BioAssay AID540256 (National Center for Advancing Translational Sciences (NCATS), 2011)
# The campaign covered roughly 300,000 compounds. About 3,700 (1.2%) were called active. The shares of active, inactive and inconclusive entries below differ from those in the screen. The call rests on the fitted dose curve; tested in HEK293 cells. Potencies of inconclusive entries are doubtful fits and often do not repeat.
# Test: qHTS for Inhibitors of binding or entry into cells for Lassa Virus; further: nearly all actives have a fitted effect of over 50% in size
# Details: Lassa virus pseudotype entry inhibition, cell reporter; series mostly up to 37.9 µM
# Potency means the concentration at half of the fitted maximal effect.
row,Structure (SMILES),Potency
1,COc1ccc(CN(C(=O)c2nsc(Cl)c2Cl)C(C(=O)NC2CCCC2)c2ccc(OC)cc2)cc1 (stereo unspecified),active: 20.6 µM
2,c1ccc(-n2ncc3c(N4CCCC4)ncnc32)cc1,"inconclusive: 0.651 µM [activator, single point]"
3,Nc1ccc2c(c1)Cc1cc(Cl)c(Cl)cc1-2,"inconclusive: 10 µM [activator, partial curve, poor fit]"
4,Cc1ccc(C)c(N(C(=O)c2snc(C(N)=O)c2N)C(C(=O)NCC2CCCO2)c2cccs2)c1 (stereo unspecified),"inconclusive: 10 µM [inhibitor, partial curve, poor fit]"
5,Cc1cc(=O)[nH]c(N2CCCNCC2)n1,"inconclusive: 14.1 µM [activator, single point]"
6,CCOC(=O)c1cc(S(=O)(=O)N2CCN(c3ccc(C(C)=O)cc3)CC2)[nH]n1,inactive
7,CC(=O)Nc1ccc(/C(C)=N/Nc2nc(Nc3ccccc3)nc(N3CCOCC3)n2)cc1,"inconclusive: 35.5 µM [inhibitor, single point]"
8,CCOC(=O)C(NC(=O)c1ccc(OC)cc1)(OCC1(CC)COC1)C(F)(F)F (stereo unspecified),inactive
9,Oc1ccc(N=Cc2sc3ccccc3c2Cl)cc1,"inconclusive: 5.62 µM [inhibitor, single point]"
10,O=S(=O)(c1cnccc1N1CCN(CCO)CC1)N1CCCCC1,inactive
11,COCc1nnc(NC(=O)c2ccccc2[N+](=O)[O-])s1,inactive
12,Cc1cccc(N2CCN(C(=O)C3CCN(S(=O)(=O)N4CCOCC4)CC3)CC2C)c1 (stereo unspecified),inactive
13,C=CCn1c(SCc2c(C)noc2C)nc2cc(C(=O)O)ccc2c1=O,"inconclusive: 5.8 µM [inhibitor, full curve, poor fit]"
14,Cc1onc(NC(=O)CSCC(=O)O)c1Br,inactive
15,COc1cccc(N(CC(=O)Nc2ccc3c(c2)OCO3)S(=O)(=O)c2ccccc2)c1,"inconclusive: 25.9 µM [inhibitor, single point]"
16,NC(N)=NN=C(c1ccc(F)cc1)c1ccc(C(F)(F)F)cc1,active: 10 µM
17,Cc1ccc(NC(=O)c2cc(C)n(-c3cccc(C)c3)c2C)cc1,active: 10 µM
18,CCOC(=O)c1c(C)nsc1NC(=O)C1CCCCC1,inactive
19,COCCN=C1Sc2nc3ccc(C)cc3cc2CN1Cc1ccco1,inactive
20,COc1ccc(/C=C2\C(=O)N(Cc3ccc(F)cc3)CC(=O)N2Cc2ccccc2)cc1,"inconclusive: 15.8 µM [inhibitor, single point]"
21,COc1cc(NC(=O)C2CCCN(S(=O)(=O)c3ccc4[nH]c(=O)ccc4c3)C2)cc(OC)c1 (stereo unspecified),"inconclusive: 3.16 µM [activator, single point]"
22,CCOc1ccccc1Oc1ccc(C(F)(F)F)cn1,inactive
23,Cc1cccc(OCc2nnc(SCC(=O)N3c4ccccc4CC3C)n2C)c1C (stereo unspecified),"inconclusive: 35.5 µM [inhibitor, single point]"

row,Structure (SMILES),Potency
1,COc1ccccc1C=Cc1ccnc2ccccc12,"inconclusive: 5.01 µM [inhibitor, partial curve, poor fit]"
2,COc1ccc(NC(=O)c2ccccc2-c2ccc(C(F)(F)F)cc2)cc1S(=O)(=O)N1CCOCC1,"inconclusive: 1.26 µM [inhibitor, single point]"
3,Cc1cc2cc(CNC(=O)CC(C)C)ccc2n1C,"inconclusive: 6.51 µM [activator, partial curve, poor fit]"
4,CNC(=O)/C(C#N)=C/c1c(N2CCN(c3cccc(Cl)c3)CC2)nc2c(C)cccn2c1=O,"inconclusive: 35.5 µM [inhibitor, single point]"
5,COc1ccc(CNC(=O)Cn2ncc3c([nH]c4ccccc43)c2=O)cc1,inactive
6,Cc1ccc(-c2ccc(C(=O)Nc3ccccc3)o2)c2ccccc12,"inconclusive: 11.2 µM [activator, single point]"
7,Cc1cc(C)nc(SCc2ccc(C(=O)N/N=C/c3cccc(O)c3O)cc2)n1,"inconclusive: 10 µM [inhibitor, partial curve, poor fit]"
8,COc1ccc(NC(=O)C23CC4CC(C2)CC(c2ccc(C)cc2)(C4)C3)cc1,"inconclusive: 6.31 µM [inhibitor, single point]"
9,Cc1cccc(CCNC(=O)CCc2c(C)nc3c4c(C)cc(C)nc4nn3c2C)c1,inactive
10,CCc1ccccc1N1C(=O)CN(Cc2cc(OC)c(OC)c(OC)c2)C1=S,"inconclusive: 10 µM [inhibitor, partial curve, poor fit]"
11,CCOc1ccc(N(CC(=O)NCCc2ccccc2)C(=O)CCC(=O)Nc2cc(C)ccn2)cc1,"inconclusive: 0.447 µM [inhibitor, full curve, poor fit]"
12,COc1cc(-c2cc(OC)c3c(C)oc(C)c3c(=O)c2)ccc1O,inactive
13,CN(CC(=O)Nc1ccccc1C(F)(F)F)C(=O)c1cc(-c2cccs2)nn1-c1ccccc1,inactive
14,CCOc1ccccc1Nc1nnc(-c2cc3cc(OC)ccc3oc2=O)s1,"inconclusive: 6.31 µM [inhibitor, single point]"
15,CCN(CC)c1cc2c(cc1F)c(=O)c(S(=O)(=O)c1ccc(OC)cc1)cn2Cc1ccccc1,"inconclusive: 7.08 µM [inhibitor, full curve, poor fit]"
16,CC(=O)c1ccc(NC(=O)Cn2c(-n3nc(C)cc3C)nc(C)c(C)c2=O)cc1,inactive
17,CCN(Cc1nc(-c2ccc(OC)cc2)oc1C)S(=O)(=O)c1ccc(C)cc1,"inconclusive: 12.6 µM [inhibitor, partial curve, poor fit]"
18,CCNC(=S)Nc1cccc(S(=O)(=O)Nc2ccccc2OC)c1,inactive
19,COc1ccccc1-c1nn2c(C3COc4ccccc4O3)nnc2s1 (stereo unspecified),inactive
20,CC(C)(C)c1ccc(C(=O)Nc2nnc(Cc3c[nH]c4ccccc34)s2)cc1,"inconclusive: 0.231 µM [inhibitor, single point]"
21,Cc1cc(N(CC(=O)NC2CC2)S(C)(=O)=O)ccc1Br,inactive
22,COc1ccc(CCNC(=O)c2ccc3c(c2)N(Cc2ccc(Cl)cc2)C(=O)c2ccccc2S3)cc1OC,inactive
23,Cc1ccc(NC(=O)CCN2CCN(CCO)CC2)cc1C,"inconclusive: 6.31 µM [activator, single point]"

# Random excerpt: two records from the list, in no set order.
row,Structure (SMILES),Potency
11,CCOc1ccc(N(CC(=O)NCCc2ccccc2)C(=O)CCC(=O)Nc2cc(C)ccn2)cc1,"inconclusive: 0.447 µM [inhibitor, full curve, poor fit]"
16,CC(=O)c1ccc(NC(=O)Cn2c(-n3nc(C)cc3C)nc(C)c(C)c2=O)cc1,inactive
